PubChem BioAssay AID1259322, Peter MacCallum Cancer Centre – 2017

Assay: 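Kinase knock-downs reducing the TRPV4 calcium plateau after PAR2 stimulation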 (follow-up of hits)
System: human HEK293 cells with stable inducible TRPV4
Knock-down reagent: single siRNA against human genes
Challenge: PAR2 activation; agonist identity, dose and timing not stated
Measured: 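Fura-2 imaging of cytosolic calcium over time, first peak marking PAR2 and later plateau marking TRPV4 opening; both relative to mock on each plate, mean of two plates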
Reading the numbers: TRPV4 plateau calcium, % of mock: higher = stronger PAR2-dependent TRPV4 calcium entry; PAR2 peak calcium, % of mock: higher = stronger direct PAR2 calcium response
Rule for the call: 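a knock-down counts as active when the PAR2 peak exceeds 79% of mock yet the TRPV4 plateau is below 90% of mock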
Here is an unselected part of 208 deposited reagents. Over the whole deposit, 72 (35%) got an active call. 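Four separate siRNAs per kinase gene, 52 genes in all; PAR2 agonist unnamed, with its dose and timing unknown.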 Entries without a mark were called inactive. Reagents against one gene are numbered here. No sequences are given here. Not stated in the record: the amount of reagent, the time to read-out.

RPS6KA3 (GeneID 6197) #1 showed TRPV4 plateau calcium, % of mock 97.8; PAR2 peak calcium, % of mock 95.7.
Silencing of RPS6KA3 (GeneID 6197) #2 came out at: TRPV4 plateau calcium, % of mock 99.1; PAR2 peak calcium, % of mock 109.
For RPS6KA3 (GeneID 6197) #3, the values are TRPV4 plateau calcium, % of mock 98.1; PAR2 peak calcium, % of mock 103.
Against RPS6KA3 (GeneID 6197) #4 the deposit lists TRPV4 plateau calcium, % of mock 97.7; PAR2 peak calcium, % of mock 104.
Against CAMKK1 (GeneID 84254) #1 the deposit lists TRPV4 plateau calcium, % of mock 91.7; PAR2 peak calcium, % of mock 99.9.
Against CAMKK1 (GeneID 84254) #2, the entry reads TRPV4 plateau calcium, % of mock 84.7 (active); PAR2 peak calcium, % of mock 88.
CAMKK1 (GeneID 84254) #3 gave TRPV4 plateau calcium, % of mock 95.5; PAR2 peak calcium, % of mock 96.6.
After knock-down of CAMKK1 (GeneID 84254) #4, the screen gave TRPV4 plateau calcium, % of mock 85.9 (active); PAR2 peak calcium, % of mock 110.

2 consecutive entries from above, for reference:
RPS6KA3 (GeneID 6197) #1: TRPV4 plateau calcium, % of mock = 97.8; PAR2 peak calcium, % of mock = 95.7
RPS6KA3 (GeneID 6197) #2: TRPV4 plateau calcium, % of mock = 99.1; PAR2 peak calcium, % of mock = 109

Additional records follow:
Depletion of TAF1L (GeneID 138474) #1 gave: TRPV4 plateau calcium, % of mock 82.9; PAR2 peak calcium, % of mock 77.6.
After knock-down of TAF1L (GeneID 138474) #2, the screen gave TRPV4 plateau calcium, % of mock 125; PAR2 peak calcium, % of mock 108.
Silencing of TAF1L (GeneID 138474) #3 resulted in: TRPV4 plateau calcium, % of mock 90.6; PAR2 peak calcium, % of mock 88.1.
For TAF1L (GeneID 138474) #4 the deposit lists TRPV4 plateau calcium, % of mock 95.7; PAR2 peak calcium, % of mock 105.
For TWF2 (GeneID 11344) #1, the entry reads TRPV4 plateau calcium, % of mock 70.1; PAR2 peak calcium, % of mock 67.8.
Silencing of TWF2 (GeneID 11344) #2 gave: TRPV4 plateau calcium, % of mock 67.7; PAR2 peak calcium, % of mock 70.2.
For TWF2 (GeneID 11344) #3 the deposit lists TRPV4 plateau calcium, % of mock 86 (active); PAR2 peak calcium, % of mock 81.6.
Against TWF2 (GeneID 11344) #4, the entry reads TRPV4 plateau calcium, % of mock 82.8 (active); PAR2 peak calcium, % of mock 87.1.
